# The list shows a part of the results.
# B1: pullulanase (Streptococcus pyogenes), Q8KLP1 (protein)
# chain: MKKKVNQGSKRYQYLLKKWGIGFVIAATGTVMLGCIPSILTHQVAAKTIVGLARDEAQQGDGNAKSGDGFQSSSKEAKPVLDSSSANPASIAEHHLRMHFKTLPAGESLGSLGLWVWGDVDQPSKDWPNGAITMTKAKKDDYGYYLDVPLAAKHRQQVSYLINNKAGENLSKDQHIPLLTPKMNEVWIDENYHAHAYRPLKKGYLRINYHNQSGHYDNLAVWTFKDVKTPTTDWPNGLDLSHKGPYGAYVDVPLKEGANEIGFLILDKSKTGDAIKVQPKDYLFKELDNHTQVFVKDTDPKVYNNPYYIDQVSLKGAEQTTPNEIKAIFTTLDGLDEDAVKQNIKITDKAGKTVAIDELTLDKDKSVMTLKGDFKAQGAVYTVTFGEVSQVARQSWQLKDKLYAYDGELGATLAKDGSVDLALWSPSADSVKVVVYDKQDQTKVVGQADLTKSDKGVWRAHLTSDSVKGISDYTGYYYLYEITRGQEKVMVLDPYAKSLAAWNDATATDDIKTAKAAFIDPSKLGPTGLDFAKINNFKKREDAIIYEAHVRDFTSDKALEGKLTHPFGTFSAFVEQLDYLKDLGVTHVQLLPVLSYFYANELDKTRSTAYTSSDNNYNWGYDPQHYFALSGMYSANPNDPALRIAELKNLVNEIHKRGMGVIFDVVYNHTARTYLFEDLEPNYYHFMNADGTARESFGGGRLGTTHAMSRRILVDSITYLTREFKVDGFRFDMMGDHDAAAIEQAFKAAKAINPNTIMIGEGWRTYQGDEGKKEIAADQDWMKATNTVGVFSDDIRNTLKSGFPNEGTAAFITGGAKNLEGLFKTIKAQPSNFEADAPGDVVQYIAAHDNLTLHDVIAKSINKDPKVAEEEIHKRIRLGNTMILTAQGTAFIHSGQEYGRTKQLLNPDYKTKVSDDKVPNKATLIDAVAQYPYFIHDSYDSSDAVNHFDWAKATDSIAHPISNQTKAYTQGLIALRRSTDAFTKATKAEVDRDVTLITQAGQDGIQQEDLIMGYQTVASNGDRYAVFVNADNKTRKVVLPQAYRYLLGAQVLADAEQVGVTAIAKPKGVQFTKEGLTIDGLTALVLKVSSKTANPSQQKSQTDNHQTKTPDGSKDLDKSLMTRPKRAKTNQKLPKTGEAPSKGLLAAGVALLLLAISLLMKRQKD
# Key:
# Test in all cases: glycan array binding signal (z-score within array); higher = stronger binding
# Details in all cases: glycan notation: IUPAC condensed, linker removed
# [1] = target: Gal(b1-4)GalNAc(b1-3)[Fuc(a1-2)]Gal(b1-4)GlcNAc
# Summary of the method: (§1)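 Glycan array data came from 3228 arrays in the Consortium for Functional Glycomics database, and only arrays with an available protein sequence were kept. Glycan names were put into IUPAC-condensed notation, and columns mapping to the same glycan were averaged. The binding signal is a within-array Z-score, averaged across arrays of one protein sequence run at different concentrations or buffers and across linkers. A negative Z-score can be read as non-binding.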
# [2] = target: Gal(b1-4)Glc
# Summary of the method: as §1
# [3] = target: Gal(b1-4)Glc6S
# Summary of the method: as §1
# [4] = target: Gal(b1-4)GlcNAc
# Summary of the method: as §1
# [5] = target: Gal(b1-4)GlcNAc(a1-6)Gal(b1-4)GlcNAc
# Summary of the method: as §1
# [6] = target: Gal(b1-4)GlcNAc(b1-2)Man(a1-3)Man(b1-4)GlcNAc(b1-4)GlcNAc
# Summary of the method: as §1
# [7] = target: Gal(b1-4)GlcNAc(b1-2)Man(a1-3)[Gal(b1-4)GlcNAc(b1-2)Man(a1-6)]Man(b1-4)GlcNAc(b1-4)GlcNAc
# Summary of the method: as §1
# [8] = target: Gal(b1-4)GlcNAc(b1-2)Man(a1-3)[Gal(b1-4)GlcNAc(b1-2)Man(a1-6)]Man(b1-4)GlcNAc(b1-4)[Fuc(a1-6)]GlcNAc
# Summary of the method: as §1
# [9] = target: Gal(b1-4)GlcNAc(b1-2)Man(a1-3)[Gal(b1-4)GlcNAc(b1-2)][GlcNAc(b1-4)]Man(b1-4)GlcNAc(b1-4)GlcNAc
# Summary of the method: as §1
# [10] = target: Gal(b1-4)GlcNAc(b1-2)Man(a1-3)[GlcNAc(b1-2)Man(a1-6)]Man(b1-4)GlcNAc(b1-4)GlcNAc
# Summary of the method: as §1
# [11] = target: Gal(b1-4)GlcNAc(b1-2)Man(a1-3)[Man(a1-6)]Man(b1-4)GlcNAc(b1-4)GlcNAc
# Summary of the method: as §1
# [12] = target: Gal(b1-4)GlcNAc(b1-2)Man(a1-6)Man(b1-4)GlcNAc(b1-4)GlcNAc
# Summary of the method: as §1
# [13] = target: Gal(b1-4)GlcNAc(b1-2)Man(a1-6)[GlcNAc(b1-2)Man(a1-3)]Man(b1-4)GlcNAc(b1-4)GlcNAc
# Summary of the method: as §1
# [14] = target: Gal(b1-4)GlcNAc(b1-2)Man(a1-6)[Man(a1-3)]Man(b1-4)GlcNAc(b1-4)GlcNAc
# Summary of the method: as §1
# [15] = target: Gal(b1-4)GlcNAc(b1-2)[Gal(b1-4)GlcNAc(b1-4)]Man(a1-3)[Gal(b1-4)GlcNAc(b1-2)Man(a1-6)]Man(b1-4)GlcNAc(b1-4)GlcNAc
# Summary of the method: as §1
# [16] = target: Gal(b1-4)GlcNAc(b1-2)[Gal(b1-4)GlcNAc(b1-4)]Man(a1-3)[Gal(b1-4)GlcNAc(b1-2)[Gal(b1-4)GlcNAc(b1-6)]Man(a1-6)]Man(b1-4)GlcNAc(b1-4)GlcNAc
# Summary of the method: as §1
# [17] = target: Gal(b1-4)GlcNAc(b1-2)[Gal(b1-4)GlcNAc(b1-4)]Man(a1-3)[GlcNAc(b1-4)][Gal(b1-4)GlcNAc(b1-2)Man(a1-6)]Man(b1-4)GlcNAc(b1-4)GlcNAc
# Summary of the method: as §1
# [18] = target: Gal(b1-4)GlcNAc(b1-2)[Gal(b1-4)GlcNAc(b1-6)]Man(a1-6)[GlcNAc(b1-4)][Gal(b1-4)GlcNAc(b1-2)Man(a1-3)]Man(b1-4)GlcNAc(b1-4)GlcNAc
# Summary of the method: as §1
# [19] = target: Gal(b1-4)GlcNAc(b1-3)Gal(b1-3)GlcNAc
# Summary of the method: as §1
# [20] = target: Gal(b1-4)GlcNAc(b1-3)Gal(b1-4)Glc
# Summary of the method: as §1
# [21] = target: Gal(b1-4)GlcNAc(b1-3)Gal(b1-4)GlcNAc
# Summary of the method: as §1
# [22] = target: Gal(b1-4)GlcNAc(b1-3)Gal(b1-4)GlcNAc(b1-3)Gal(b1-4)GlcNAc
# Summary of the method: as §1
# [23] = target: Gal(b1-4)GlcNAc(b1-3)Gal(b1-4)[Fuc(a1-3)GlcNAc(b1-6)]Gal(b1-4)Glc
# Summary of the method: as §1
# [24] = target: Gal(b1-4)GlcNAc(b1-3)Gal(b1-4)[Fuc(a1-3)]GlcNAc(b1-3)Gal(b1-4)[Fuc(a1-3)]GlcNAc
# Summary of the method: as §1
# [25] = target: Gal(b1-4)GlcNAc(b1-3)GalNAc
# Summary of the method: as §1
# [26] = target: Gal(b1-4)GlcNAc(b1-3)[Gal(b1-4)GlcNAc(b1-6)]Gal(b1-4)GlcNAc
# Summary of the method: as §1
# [27] = target: Gal(b1-4)GlcNAc(b1-3)[Gal(b1-4)GlcNAc(b1-6)]GalNAc
# Summary of the method: as §1
# [28] = target: Gal(b1-4)GlcNAc(b1-3)[GlcNAc(b1-6)]Gal(b1-4)GlcNAc
# Summary of the method: as §1
# [29] = target: Gal(b1-4)GlcNAc(b1-6)Gal(b1-4)GlcNAc
# Summary of the method: as §1
# [30] = target: Gal(b1-4)GlcNAc(b1-6)GalNAc
# Summary of the method: as §1
# [31] = target: Gal(b1-4)GlcNAc(b1-6)[Gal(b1-3)]GalNAc
# Summary of the method: as §1
# [32] = target: Gal(b1-6)Gal
# Summary of the method: as §1
# [33] = target: Gal3S(b1-3)GalNAc
# Summary of the method: as §1
# [34] = target: Gal3S(b1-3)GlcNAc
# Summary of the method: as §1
# [35] = target: Gal3S(b1-3)[Fuc(a1-4)]GlcNAc
# Summary of the method: as §1
# [36] = target: Gal3S(b1-4)Glc
# Summary of the method: as §1
# [37] = target: Gal3S(b1-4)Glc6S
# Summary of the method: as §1
# [38] = target: Gal3S(b1-4)GlcNAc
# Summary of the method: as §1
# [39] = target: Gal3S(b1-4)GlcNAc6S
# Summary of the method: as §1
# [40] = target: Gal3S(b1-4)[Fuc(a1-3)]Glc
# Summary of the method: as §1
# [41] = target: Gal3S(b1-4)[Fuc(a1-3)]Glc6S
# Summary of the method: as §1
# [42] = target: Gal3S4S(b1-4)GlcNAc
# Summary of the method: as §1
# [43] = target: Gal3S6S(b1-4)GlcNAc
# Summary of the method: as §1
# [44] = target: Gal3S6S(b1-4)GlcNAc6S
# Summary of the method: as §1
# [45] = target: Gal4S(b1-4)GlcNAc
# Summary of the method: as §1
binder,measurement,setting,value
B1,glycan array binding signal (z-score),[1],1.28
same,glycan array binding signal (z-score),[2],0.234
same,glycan array binding signal (z-score),[3],-0.375
same,glycan array binding signal (z-score),[4],0.731
same,glycan array binding signal (z-score),[5],-0.44
same,glycan array binding signal (z-score),[6],-0.406
same,glycan array binding signal (z-score),[7],0.669
same,glycan array binding signal (z-score),[8],0.304
same,glycan array binding signal (z-score),[9],-1.23
same,glycan array binding signal (z-score),[10],-0.838
same,glycan array binding signal (z-score),[11],-0.985
same,glycan array binding signal (z-score),[12],0.381
same,glycan array binding signal (z-score),[13],-0.716
same,glycan array binding signal (z-score),[14],0.719
same,glycan array binding signal (z-score),[15],-0.477
same,glycan array binding signal (z-score),[16],-0.602
same,glycan array binding signal (z-score),[17],0.829
same,glycan array binding signal (z-score),[18],0.194
same,glycan array binding signal (z-score),[19],0.206
same,glycan array binding signal (z-score),[20],0.117
same,glycan array binding signal (z-score),[21],-0.647
same,glycan array binding signal (z-score),[22],0.989
same,glycan array binding signal (z-score),[23],-0.926
same,glycan array binding signal (z-score),[24],0.33
same,glycan array binding signal (z-score),[25],-0.565
same,glycan array binding signal (z-score),[26],-0.911
same,glycan array binding signal (z-score),[27],0.93
same,glycan array binding signal (z-score),[28],-2.09
same,glycan array binding signal (z-score),[29],-1.19
same,glycan array binding signal (z-score),[30],1.03
same,glycan array binding signal (z-score),[31],-0.486
same,glycan array binding signal (z-score),[32],-1.46
same,glycan array binding signal (z-score),[33],-0.01
same,glycan array binding signal (z-score),[34],0.003
same,glycan array binding signal (z-score),[35],-0.731
same,glycan array binding signal (z-score),[36],1.42
same,glycan array binding signal (z-score),[37],0.14
same,glycan array binding signal (z-score),[38],1.09
same,glycan array binding signal (z-score),[39],-0.754
same,glycan array binding signal (z-score),[40],0.573
same,glycan array binding signal (z-score),[41],1.65
same,glycan array binding signal (z-score),[42],-0.117
same,glycan array binding signal (z-score),[43],0.465
same,glycan array binding signal (z-score),[44],-0.367
same,glycan array binding signal (z-score),[45],-0.804

# A different layout for some results above.
binder	measurement	setting	value
B1	glycan array binding signal (z-score)	[3]	-0.375
same	glycan array binding signal (z-score)	[4]	0.731

# From the supplement of paper PMC8728848
